The test has as its target Flag-tagged Smad3 (UniProt P84022). Kind of test: co-IP; Flag-Smad3 transfected into HK2 cells cultured in Mann or HG medium; NP-40 lysis buffer (50 mM Tris pH 7.5, 150 mM NaCl, 1 mM EDTA, 0.25% sodium deoxycholate); anti-Flag and Protein A/G PLUS-Agarose at 4°C overnight; blot with anti-Sirt6 for endogenous Sirt6.

Chains of the proteins cited; added tags and fusions are not shown.
UniProt P84022: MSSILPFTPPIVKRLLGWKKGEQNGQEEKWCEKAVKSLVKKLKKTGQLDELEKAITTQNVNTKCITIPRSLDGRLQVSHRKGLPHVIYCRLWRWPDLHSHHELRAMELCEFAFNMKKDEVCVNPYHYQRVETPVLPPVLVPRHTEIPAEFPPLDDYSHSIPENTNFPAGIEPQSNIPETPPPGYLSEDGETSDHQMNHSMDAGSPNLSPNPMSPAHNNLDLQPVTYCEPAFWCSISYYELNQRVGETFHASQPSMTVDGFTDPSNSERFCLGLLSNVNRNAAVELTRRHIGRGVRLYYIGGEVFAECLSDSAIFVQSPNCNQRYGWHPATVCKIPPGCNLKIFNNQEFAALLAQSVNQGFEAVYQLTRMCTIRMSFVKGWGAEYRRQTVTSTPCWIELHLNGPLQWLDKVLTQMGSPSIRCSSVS
UniProt Q8N6T7: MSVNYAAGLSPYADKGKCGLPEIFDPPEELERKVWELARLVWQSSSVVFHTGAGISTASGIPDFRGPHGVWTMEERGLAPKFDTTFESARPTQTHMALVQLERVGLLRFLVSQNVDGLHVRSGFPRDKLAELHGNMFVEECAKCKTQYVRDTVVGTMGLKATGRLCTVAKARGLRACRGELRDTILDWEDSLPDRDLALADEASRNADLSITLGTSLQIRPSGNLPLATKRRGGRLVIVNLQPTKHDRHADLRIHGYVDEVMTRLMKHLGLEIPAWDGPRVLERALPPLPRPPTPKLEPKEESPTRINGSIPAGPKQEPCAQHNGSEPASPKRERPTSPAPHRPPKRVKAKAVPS

The text below walks through data of article PMC8172321.

These are yes or no findings as the source states them, for the method shown. Binding seen in cells or lysates may run through a third protein. Some entries that bind do so weakly or less than the wild type.

On to “Sirt6 (from UniProt Q8N6T7 1-355) (enzyme)”, for which the binding entry is “binds”.
